These are yes or no findings as the source states them, for the method shown. In cells and extracts the contact can be indirect. Some results given as binding are weak or reduced against the parent protein; the word gives no strength.
Assays:
[1] = molecular target: E2F1 (human (endogenous in 293T and Y79)) (UniProt Q01094); assay: co-IP; endogenous proteins; 293T and Y79 cell extracts immunoprecipitated with anti-E2F1 antisera and immunoblotted for FoxO1
HA-E2F1 = HA-E2F1 (UniProt Q01094); assay: co-IP; 293T cells transfected with HA-E2F1 and Flag-FoxO1, lysed, immunoprecipitated with anti-HA and blotted with anti-FLAG

Sequences of proteins named here, by UniProt entry; tags and fusion partners are left off.
UniProt Q01094: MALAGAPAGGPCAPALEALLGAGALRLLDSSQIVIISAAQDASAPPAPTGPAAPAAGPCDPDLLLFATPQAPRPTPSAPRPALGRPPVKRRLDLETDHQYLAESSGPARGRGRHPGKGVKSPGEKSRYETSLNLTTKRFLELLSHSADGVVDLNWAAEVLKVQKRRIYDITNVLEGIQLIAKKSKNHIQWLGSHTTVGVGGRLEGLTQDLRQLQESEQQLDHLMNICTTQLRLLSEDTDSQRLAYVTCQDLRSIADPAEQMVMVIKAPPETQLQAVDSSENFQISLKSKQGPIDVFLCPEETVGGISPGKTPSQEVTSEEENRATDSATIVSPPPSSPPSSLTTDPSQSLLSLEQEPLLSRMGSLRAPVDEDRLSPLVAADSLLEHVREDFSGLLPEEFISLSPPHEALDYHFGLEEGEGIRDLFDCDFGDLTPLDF
UniProt Q12778: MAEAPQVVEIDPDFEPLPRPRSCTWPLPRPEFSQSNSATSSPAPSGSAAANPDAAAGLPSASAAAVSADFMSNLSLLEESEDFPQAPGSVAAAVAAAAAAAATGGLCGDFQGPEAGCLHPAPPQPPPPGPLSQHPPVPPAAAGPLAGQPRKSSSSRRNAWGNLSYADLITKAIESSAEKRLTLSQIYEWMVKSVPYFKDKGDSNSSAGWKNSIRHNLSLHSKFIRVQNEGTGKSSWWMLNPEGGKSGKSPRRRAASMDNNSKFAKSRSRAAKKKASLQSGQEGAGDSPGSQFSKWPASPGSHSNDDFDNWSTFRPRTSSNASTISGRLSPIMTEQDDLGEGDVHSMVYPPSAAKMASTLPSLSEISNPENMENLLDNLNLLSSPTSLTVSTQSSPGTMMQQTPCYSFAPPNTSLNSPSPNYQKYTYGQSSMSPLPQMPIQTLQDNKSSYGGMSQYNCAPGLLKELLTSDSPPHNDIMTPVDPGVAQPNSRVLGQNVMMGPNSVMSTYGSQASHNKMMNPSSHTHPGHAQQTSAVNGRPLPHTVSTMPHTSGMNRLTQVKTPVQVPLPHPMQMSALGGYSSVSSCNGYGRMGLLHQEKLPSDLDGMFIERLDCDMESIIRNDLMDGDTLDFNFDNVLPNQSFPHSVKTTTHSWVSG

Row | binding [1] | binding (HA-E2F1) | Substance
1 | binds |  | FOXO1 (from UniProt Q12778 1-655)
2 |  | binds | Flag-FoxO1 (from UniProt Q12778 1-655)

Reference: article PMC4411757
